According to PubChem BioAssay AID504834 (National Center for Advancing Translational Sciences (NCATS), 2011):
In all, about 320,000 compounds went through this assay and about 22,000 (6.9%) were called active. Inconclusive results, whose numbers are uncertain, are shown with a selection of clear calls. Calls follow the shape of the dose curve; as a rule, active = well fitted inhibition curve with a large enough effect; inconclusive = small, poorly fitted or top-dose-only effect, or another doubt; inactive = no such curve, though single readings can be large or run the other way. Potencies beside an inconclusive call are fits to weak or partial responses and may not hold up.

Assay: Primary qHTS for delayed death inhibitors of the malarial parasite plastid, 96 hour incubation
Details: P. falciparum luciferase reporter growth; series mostly up to 28.7 µM
Method in brief: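 Plates of compound plus infected erythrocytes (2% hematocrit, 0.05% parasitemia final) incubate 96 hours, 37 C, 5% CO2. Detection reagent added; reduced luminescence from the parasites' luciferase reporter flags inhibition.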
Potency is read from the fitted curve at half-maximal effect.

Question: Which Potency does the source give for `O=C(NC1CCCC1)C(c1ccncc1)N(Cc1ccccc1)C(=O)c1ccc(-c2ccccc2)[nH]1` (centres undefined) here?
Answer: inconclusive: 0.0033 µM [inhibitor, full curve, poor fit]

Question: With `Cc1csc2c(N3CCN(S(=O)(=O)c4ccc(Cl)cc4)CC3)ncnc12` as the compound, how does the Potency read?
Answer: inactive

Question: For `CCC(C(=O)NC1CCCC1)N(C(=O)Cn1nnc(-c2ccc(C)o2)n1)C(C)(C)C` (centres undefined), which Potency is on record?
Answer: active: 2.33 µM

Question: With `CCCNC(=O)C1CC(c2ccc(C(F)(F)F)cc2)=NO1` (centres undefined) as the compound, how does the Potency read?
Answer: inactive

Question: Which Potency does the source give for `O=C(CCS(=O)(=O)c1cccc2nonc12)Nc1ccc(Br)cc1` here?
Answer: inactive

Question: For `CCCC(C)C(=O)Nc1nc(C)c(-c2csc(Nc3cc(OC)ccc3OC)n2)s1` (centres undefined), which Potency is on record?
Answer: active: 9.28 µM

Question: For `CCOC(=O)CSc1nnc([C@@H](NC(=O)OC(C)(C)C)C(C)C)o1`, which Potency is on record?
Answer: inconclusive: 0.37 µM [inhibitor, full curve]

Question: With `O=C(NCc1cnc2ccccn12)C1CCC(=O)N(Cc2cccc(F)c2)C1` (centres undefined) as the compound, how does the Potency read?
Answer: inconclusive: 18.5 µM [inhibitor, single point]

Question: Which Potency does the source give for `OCCC1CN(CCCn2cccn2)CCN1C1CCCCC1` (centres undefined) here?
Answer: inactive

Question: For `C/C=C(\C)CN1CCC(n2nccc2NC(=O)c2ccc3c(c2)OCO3)CC1`, which Potency is on record?
Answer: inactive

Question: With `C/C(=N\NC(=O)C1CCCC1)c1ccc(Cl)cc1Cl` as the compound, how does the Potency read?
Answer: inactive

Question: Which Potency does the source give for `COc1ccc(C(CNC(=O)COc2ccc(Cl)cc2C)N2CCCCC2)cc1` (centres undefined) here?
Answer: inactive

Question: For `Cc1ccccc1-c1nc(P(=O)(c2ccccc2)c2ccccc2)c(N2CCOCC2)o1`, which Potency is on record?
Answer: inconclusive: 7.38 µM [inhibitor, partial curve]

Question: With `COc1ccc(Cl)cc1NC(=O)CCn1c(=O)oc2ccccc21` as the compound, how does the Potency read?
Answer: inconclusive: 18.5 µM [inhibitor, single point]

Question: Which Potency does the source give for `CCOC(=O)C1=C(CC)Nc2ccccc2N=C1NC(=O)c1ccc(S(=O)(=O)N2CCCC2)cc1` here?
Answer: inconclusive: 9.28 µM [inhibitor, partial curve]

Question: With `CNC(=S)N1N=C(c2ccc(C)cc2)CC1c1ccc(OC)c(OC)c1` (centres undefined) as the compound, how does the Potency read?
Answer: inconclusive: 18.5 µM [inhibitor, single point]

Question: For `Cc1nc(CNC(=O)CC2C(=O)NCCN2Cc2ccoc2)nc2c1CCCC2` (centres undefined), which Potency is on record?
Answer: inactive

Question: Which Potency does the source give for `COC(=O)C1=C(C(C)=O)C(c2ccc(C)cc2)n2nnnc2N1` (centres undefined) here?
Answer: inconclusive: 18.5 µM [inhibitor, single point]

Question: Which Potency does the source give for `Cc1ccc(N2C(=O)NC(NC(=O)C3CC3)(C(F)(F)F)C2=O)cc1` (centres undefined) here?
Answer: inconclusive: 0.0033 µM [inhibitor, full curve, poor fit]

Question: With `Cc1ccc(/C=C/C(=O)c2ccc(N3CCOCC3)cc2)s1` as the compound, how does the Potency read?
Answer: inactive

Question: With `C#CCOc1nc(OCC#C)nc(OCC#C)n1` as the compound, how does the Potency read?
Answer: inactive

Question: With `COc1ccc(-n2c(C(C)(C)C)csc2=Nc2c(C)n(C)n(-c3ccccc3)c2=O)cc1` as the compound, how does the Potency read?
Answer: inconclusive: 0.0522 µM [inhibitor, full curve, poor fit]

Question: Which Potency does the source give for `CCOC(=O)Cn1cnc2c(cnn2-c2ccc(Cl)cc2)c1=O` here?
Answer: inconclusive: 2.94 µM [inhibitor, single point]

Question: For `Cc1ccc(NC(=O)c2ccc(OCc3c(C)noc3C)cc2)nc1`, which Potency is on record?
Answer: inconclusive: 4.15 µM [inhibitor, partial curve, poor fit]

Question: With `CCOc1cc(-c2nc(-c3ccncc3)no2)cc(OCC)c1OCC` as the compound, how does the Potency read?
Answer: inactive

Question: Which Potency does the source give for `C#CC[N+](CC)(CC)CC#Cc1cccc(Cl)c1` here?
Answer: inconclusive: 18.5 µM [inhibitor, partial curve, poor fit]

Question: Which Potency does the source give for `CCC(C(=O)NC1CCCCC1)N(CC1CCCO1)C(=O)CNS(=O)(=O)c1ccc(OC)cc1` (centres undefined) here?
Answer: inconclusive: 18.5 µM [inhibitor, single point]

Question: With `O=C(CN1CCN(Cc2ccccc2)CC1)N/N=C/c1cccs1` as the compound, how does the Potency read?
Answer: inconclusive: 8.28 µM [inhibitor, partial curve, poor fit]

Question: With `Cc1c2cnn(CC(=O)Nc3c(F)c(F)cc(F)c3F)c(=O)c2c(C)n1Cc1ccc(F)cc1` as the compound, how does the Potency read?
Answer: inconclusive: 11.7 µM [inhibitor, single point]

Question: With `CC1CC1C(=O)OCC(=O)NC(=O)c1ccccc1` (centres undefined) as the compound, how does the Potency read?
Answer: inactive

Question: For `CCc1cccc(CC)c1NC(=O)COC(=O)c1ccccc1-c1nc2ccccc2s1`, which Potency is on record?
Answer: inconclusive: 18.5 µM [inhibitor, single point]

Question: Which Potency does the source give for `CCCCN(C(=O)c1oc2ccc(OCC)cc2c1C)c1c(N)n(CCCC)c(=O)[nH]c1=O` here?
Answer: inconclusive: 18.5 µM [inhibitor, single point]

Question: With `COc1cccc(NC(=S)N2CCCC2)c1` as the compound, how does the Potency read?
Answer: inconclusive: 18.5 µM [inhibitor, single point]

Question: For `CCSc1nnnn1-c1ccccc1`, which Potency is on record?
Answer: inconclusive: 5.86 µM [inhibitor, partial curve, poor fit]

Question: With `Cc1ccc2nc(C)cc(C(=O)N3CCCC(N4CCN(c5ccccc5C)CC4)C3)c2c1` (centres undefined) as the compound, how does the Potency read?
Answer: inactive

Question: With `Cc1ccc(CNC(=O)Cn2cccc2C(=O)c2ccccc2C)cc1` as the compound, how does the Potency read?
Answer: inactive

Question: With `COc1ccccc1CN(C)C(=O)CSc1nnc(C2CC2)n1C1CC1` as the compound, how does the Potency read?
Answer: inconclusive: 13.1 µM [inhibitor, partial curve]

Question: With `CC(=O)c1ccc(Oc2cc(-c3ccccc3)nc(-c3ccccc3)n2)cc1` as the compound, how does the Potency read?
Answer: inconclusive: 18.5 µM [inhibitor, single point]

Question: With `O=C(/C=C/c1ccc([N+](=O)[O-])cc1)NCCN1C(=O)S/C(=C\c2ccc(F)cc2)C1=O` as the compound, how does the Potency read?
Answer: inactive

Question: With `C=C(C)c1cccc(C(C)(C)NC(=O)N2CCN(C/C=C/c3ccccc3)CC2)c1` as the compound, how does the Potency read?
Answer: inconclusive: 6.57 µM [inhibitor, partial curve]

Question: With `CN(CC(=O)Nc1cccc(F)c1)C(=O)c1ccc2c(c1)CC(c1ccccc1)OC2=O` (centres undefined) as the compound, how does the Potency read?
Answer: inconclusive: 18.5 µM [inhibitor, single point]

Question: With `NC(=S)N1CCCc2ccccc21` as the compound, how does the Potency read?
Answer: inconclusive: 0.738 µM [inhibitor, full curve, poor fit]

Question: Which Potency does the source give for `Cn1c(SCCOc2cccc(Cl)c2)nnc1-c1ccncc1` here?
Answer: inconclusive: 0.104 µM [inhibitor, full curve, poor fit]

Question: For `COc1cc(/C=C2/SC(=S)N(c3ccccc3)C2=O)ccc1Oc1nc(N2CCOCC2)nc(N2CCOCC2)n1`, which Potency is on record?
Answer: inactive

Question: Which Potency does the source give for `O=C(O)c1cc(-c2ccc(Cl)s2)nc2ccccc12` here?
Answer: inactive

Question: For `Cc1ccc(-c2csc(NC(=O)Cn3[nH]c(=O)c4ccccc4c3=O)n2)cc1`, which Potency is on record?
Answer: inconclusive: 10.4 µM [inhibitor, partial curve, poor fit]

Question: For `COc1cc(OC)c(C(=O)NCC2CCCO2)cc1OC` (centres undefined), which Potency is on record?
Answer: inactive

Question: Which Potency does the source give for `CC(C)C[C@H](NC(=O)c1nc[nH]c1C(=O)NC1CCN(C(=O)OC(C)(C)C)CC1)C(=O)OC(C)(C)C` here?
Answer: active: 2.33 µM

Question: For `COc1cc(C(=O)Oc2c(OC)cc(C(=S)N3CCOCC3)cc2OC)cc(OC)c1OC`, which Potency is on record?
Answer: inconclusive: 18.5 µM [inhibitor, single point]

Question: Which Potency does the source give for `COCCN(C(=O)C1CC1)c1nnc(-c2ccc(C)cc2)s1` here?
Answer: inconclusive: 4.15 µM [inhibitor, full curve]

Question: With `CC(=O)Nc1ccc(C(=O)Nc2cccc(S(=O)(=O)N(C)c3ccccc3)c2)cc1` as the compound, how does the Potency read?
Answer: inconclusive: 7.38 µM [inhibitor, partial curve, poor fit]

Question: With `CC(C)(C)[C@@H]1C=C(C(=O)N2CCN(Cc3ccc4c(c3)OCO4)CC2)O[C@H](OCc2ccc(CO)cc2)C1` as the compound, how does the Potency read?
Answer: active: 11.7 µM

Question: Which Potency does the source give for `COC(=O)c1c(NC(=O)COC(=O)c2ccc(O)cc2)sc2c1CCCCC2` here?
Answer: inconclusive: 13.1 µM [inhibitor, single point]

Question: Which Potency does the source give for `CCOC(=O)c1c(C)n(C)c2c1cc(OC(C)=O)c1ccccc12` here?
Answer: inactive

Question: For `Cc1onc(-c2c(F)cccc2Cl)c1C(=O)Nc1nnc(C(F)(F)F)s1`, which Potency is on record?
Answer: active: 10.4 µM

Question: For `O=C(c1ccc2nc3ccc(Cl)cc3c(=O)n2c1)N1CCOCC1`, which Potency is on record?
Answer: inconclusive: 0.415 µM [inhibitor, full curve, poor fit]

Question: Which Potency does the source give for `Cc1c(C(=O)NCc2ccc3c(c2)OCO3)sc2nc(-c3ccccc3)cn12` here?
Answer: inconclusive: 13.1 µM [inhibitor, single point]

Question: Which Potency does the source give for `CCN1C(=O)/C(=c2\sc3nc(=O)c(Cc4ccccc4)nn3c2=O)c2ccccc21` here?
Answer: inactive

Question: With `COc1cc2ccccc2cc1C(=O)N(CCN(C)C)c1nc2c(F)cc(F)cc2s1` as the compound, how does the Potency read?
Answer: inconclusive: 18.5 µM [inhibitor, single point]

Question: For `O=C(NCc1ccco1)C1CCN(C(=O)c2cc3sccc3n2Cc2ccc(F)cc2)CC1`, which Potency is on record?
Answer: inactive

Question: Which Potency does the source give for `Cc1ccccc1-c1nc(CN2CCC(C(=O)N3CCC(C(N)=O)CC3)CC2)c(C)o1` here?
Answer: inconclusive: 0.0074 µM [inhibitor, full curve, poor fit]

Question: With `CCN(CC)CCN1C(=O)C(=O)/C(=C(/O)c2ccc(S(=O)(=O)N3CCOCC3)cc2)C1c1ccc(C(C)C)cc1` (centres undefined) as the compound, how does the Potency read?
Answer: inactive

Question: With `Cc1cc(C)n2nc(C(=O)N/N=C/c3ccccc3C)nc2n1` as the compound, how does the Potency read?
Answer: inconclusive: 4.15 µM [inhibitor, partial curve, poor fit]

Question: With `Cc1nn(-c2ccccc2)c(C)c1/C=N/NC(=O)c1cccs1` as the compound, how does the Potency read?
Answer: inconclusive: 10.4 µM [inhibitor, single point]

Question: For `CC(=O)C1=C(C)NC(SCC(=O)c2ccc(F)cc2)=C(C#N)C1CC(C)C` (centres undefined), which Potency is on record?
Answer: active: 8.28 µM

Question: With `CCN(C(=O)C1CCCN(c2ncnc3c2nc2n3CCCCC2)C1)c1cccc(Cl)c1` (centres undefined) as the compound, how does the Potency read?
Answer: inconclusive: 18.5 µM [inhibitor, single point]

Question: With `Cc1ccc(NS(=O)(=O)c2ccc(NC(=O)N3CCCCC3)cc2)cc1` as the compound, how does the Potency read?
Answer: active: 1.47 µM

Question: With `N#C/C(=C(/O)c1cccs1)c1nc2ccccc2[nH]1` as the compound, how does the Potency read?
Answer: inconclusive: 18.5 µM [inhibitor, partial curve, poor fit]

Question: For `C=C[C@@H]1CN2CC[C@H]1C[C@H]2[C@H](O)c1ccnc2ccccc12`, which Potency is on record?
Answer: active: 0.0536 µM
